## Primary screen of a compound library

The chains behind the UniProt entries cited, without tags or fusion partners.
UniProt I6X8D2, whole entry: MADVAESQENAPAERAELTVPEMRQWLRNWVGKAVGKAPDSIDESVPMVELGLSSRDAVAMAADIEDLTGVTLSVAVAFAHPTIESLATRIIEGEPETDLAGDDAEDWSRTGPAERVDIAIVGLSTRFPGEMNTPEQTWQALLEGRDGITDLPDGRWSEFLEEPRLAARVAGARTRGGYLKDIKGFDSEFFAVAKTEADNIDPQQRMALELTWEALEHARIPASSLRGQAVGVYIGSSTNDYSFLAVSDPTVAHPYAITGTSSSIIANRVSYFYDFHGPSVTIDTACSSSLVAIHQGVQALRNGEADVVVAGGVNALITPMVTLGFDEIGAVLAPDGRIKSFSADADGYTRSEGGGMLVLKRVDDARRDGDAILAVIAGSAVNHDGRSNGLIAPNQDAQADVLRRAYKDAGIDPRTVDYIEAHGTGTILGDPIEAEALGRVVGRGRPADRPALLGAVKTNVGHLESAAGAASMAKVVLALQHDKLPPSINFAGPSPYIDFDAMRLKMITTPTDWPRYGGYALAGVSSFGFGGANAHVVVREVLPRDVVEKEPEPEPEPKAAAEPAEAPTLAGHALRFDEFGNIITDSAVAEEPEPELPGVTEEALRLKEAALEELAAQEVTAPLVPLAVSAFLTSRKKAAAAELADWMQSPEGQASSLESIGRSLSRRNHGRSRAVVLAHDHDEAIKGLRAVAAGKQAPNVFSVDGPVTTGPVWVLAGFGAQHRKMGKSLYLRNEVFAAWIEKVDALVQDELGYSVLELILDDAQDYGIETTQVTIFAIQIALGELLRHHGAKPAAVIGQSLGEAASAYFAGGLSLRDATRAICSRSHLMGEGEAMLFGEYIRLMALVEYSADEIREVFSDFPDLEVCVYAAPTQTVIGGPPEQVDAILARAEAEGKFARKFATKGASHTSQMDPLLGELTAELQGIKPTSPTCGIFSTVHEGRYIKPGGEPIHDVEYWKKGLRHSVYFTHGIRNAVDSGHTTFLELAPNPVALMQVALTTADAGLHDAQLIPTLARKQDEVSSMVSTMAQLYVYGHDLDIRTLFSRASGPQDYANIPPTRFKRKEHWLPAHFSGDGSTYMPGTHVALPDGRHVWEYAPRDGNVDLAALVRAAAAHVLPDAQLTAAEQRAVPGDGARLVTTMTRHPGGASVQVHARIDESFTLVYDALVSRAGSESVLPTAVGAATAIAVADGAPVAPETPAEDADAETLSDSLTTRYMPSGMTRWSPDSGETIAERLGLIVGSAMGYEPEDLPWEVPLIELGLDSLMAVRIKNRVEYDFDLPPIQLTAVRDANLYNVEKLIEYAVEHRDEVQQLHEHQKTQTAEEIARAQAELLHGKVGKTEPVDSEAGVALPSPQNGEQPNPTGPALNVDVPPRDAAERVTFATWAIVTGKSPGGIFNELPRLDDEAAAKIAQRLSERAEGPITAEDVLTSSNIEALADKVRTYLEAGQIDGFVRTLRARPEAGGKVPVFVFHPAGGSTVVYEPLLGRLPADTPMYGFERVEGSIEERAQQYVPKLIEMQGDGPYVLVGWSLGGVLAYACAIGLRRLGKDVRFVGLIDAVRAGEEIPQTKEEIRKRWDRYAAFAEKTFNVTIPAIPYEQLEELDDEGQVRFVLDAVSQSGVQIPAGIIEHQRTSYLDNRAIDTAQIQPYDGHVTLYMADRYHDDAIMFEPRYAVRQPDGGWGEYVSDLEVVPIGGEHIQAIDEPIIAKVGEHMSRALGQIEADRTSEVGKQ
UniProt P9WPC5, whole entry: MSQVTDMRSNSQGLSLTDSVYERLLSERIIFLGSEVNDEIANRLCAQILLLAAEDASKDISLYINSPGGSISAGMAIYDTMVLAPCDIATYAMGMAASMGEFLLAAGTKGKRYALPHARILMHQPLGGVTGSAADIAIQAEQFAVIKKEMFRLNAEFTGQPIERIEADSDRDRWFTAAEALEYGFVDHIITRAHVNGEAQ
UniProt P9WPC3, whole entry partner: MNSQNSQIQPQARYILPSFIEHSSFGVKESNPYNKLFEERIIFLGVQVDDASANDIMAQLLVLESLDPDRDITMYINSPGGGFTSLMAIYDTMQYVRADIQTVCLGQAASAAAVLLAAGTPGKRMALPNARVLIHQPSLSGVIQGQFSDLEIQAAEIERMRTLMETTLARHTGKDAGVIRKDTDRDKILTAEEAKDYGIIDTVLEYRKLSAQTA

Leishmania in macrophages: 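Cell assay of Leishmania donovani living inside macrophages; the read-out is not stated. Tested at 30 µM. The record gives no direction; compounds that gave an IC50 in retests scored well above the rest, so higher reads as stronger inhibition. Of about 69,000 compounds tested this way, about 1,000 (1.5%) reached 50% or more in at least one test.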
Pks13 thioesterase: 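Enzyme assay of the thioesterase domain of polyketide synthase 13; the read-out is not stated. Target: Polyketide synthase Pks13, Mycobacterium tuberculosis (UniProt I6X8D2). Compounds at 30 µM. Higher reads as stronger inhibition (inferred from which compounds were picked for retests). About 67,000 compounds were tested under these conditions; 0.46% (about 300) showed 50% or more at least once.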
ClpP1P2: 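ClpP1P2, Mycobacterium tuberculosis (UniProt P9WPC5 and UniProt P9WPC3). Protease assay of ClpP1P2, read by the AMC dye that it sets free. Compounds at 50 µM. Higher reads as stronger inhibition, judged from the few compounds that gave an IC50. Most other retested compounds had strongly negative values. About 69,000 compounds were tested under these conditions; 0.015% (about 10) showed 50% or more at least once.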
T. brucei: 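Whole-parasite assay of Trypanosoma brucei over 72 hours; the read-out is not stated. Concentration: 30 µM. Direction is inferred from retests: higher values go with stronger inhibition. Values scatter widely below zero; nearly all retest evidence comes from the higher of the two concentrations used. Of about 64,000 compounds tested this way, about 940 (1.5%) reached 50% or more in at least one test.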

The filed quantity is “Percent Effect” (%). The record does not define 0% and 100%; most values in the screen are far below 50% and negative numbers occur (in some assays of this library far below -100). The compounds are a random part of those screened. A dash means the value is not listed here; it may have been measured.

SMILES: O=C(c1ccccn1)N1CCC2(CCCN(c3nncs3)C2)C1 (configuration not stated)
Pks13 thioesterase: -7.359%
ClpP1P2: -7.023%

SMILES: Cc1c(C(=O)N2CCN(c3ccccn3)CC2)n(C)c2ccc(Cl)cc12
Leishmania in macrophages: 2.83%
Pks13 thioesterase: 43.66%
ClpP1P2: 6.289%
T. brucei: 79.78%

SMILES: CCC(=O)N1CCC(Cc2ccccc2-c2ccncc2)(C(=O)NC)C1 (configuration not stated)
Leishmania in macrophages: 9.793%
Pks13 thioesterase: 1.878%
ClpP1P2: -9.647%
T. brucei: 20.06%

SMILES: CC(NC(=O)c1ccnc(C2CC2)n1)C1(N2CCOCC2)CCCC1 (configuration not stated)
Leishmania in macrophages: 11.64%
ClpP1P2: -3.981%
T. brucei: -1.096%

SMILES: Cc1cc(C)c(CNC(=O)NCc2ccc(F)cc2)c(=O)[nH]1
Leishmania in macrophages: -0.2099%
Pks13 thioesterase: -5.3%
ClpP1P2: -9.608%
T. brucei: -10.32%

SMILES: CN(C)CCCn1ccnc1C1CCCN(c2ncc(Cl)cc2F)C1 (configuration not stated)
Leishmania in macrophages: 27.18%
Pks13 thioesterase: -6.623%
ClpP1P2: -14.13%
T. brucei: -43.12%

SMILES: [H][C@@]12C[C@@H](c3nnc(C)[nH]3)O[C@]1([H])CN(C(=O)C(C)(C)CC)C2
Leishmania in macrophages: -35.37%
T. brucei: -5.368%

SMILES: CC1CCN(CCCNS(=O)(=O)c2cc(F)cc(F)c2)CC1
Pks13 thioesterase: -5.419%
ClpP1P2: 8.526%

SMILES: Cc1ccc(CC(=O)NC(C)C(=O)N2CCS(=O)(=O)CC2)cc1 (configuration not stated)
Leishmania in macrophages: 2.362%
Pks13 thioesterase: -9.476%
ClpP1P2: -13.5%
T. brucei: -15.78%

SMILES: OCC1(Cc2ccc(Cl)cc2)CCN(Cc2cccnc2)CC1
Leishmania in macrophages: 13.26%
Pks13 thioesterase: 17.93%
ClpP1P2: -2.865%
T. brucei: -275.4%

SMILES: Cn1ncc2c(NCCOCc3ccccc3)nc(C3CCCC3)nc21
Leishmania in macrophages: 40.71%
Pks13 thioesterase: -4.066%
ClpP1P2: -4.227%
T. brucei: -31.26%

SMILES: Cc1ccccc1-n1cc(CN(C)C(=O)CC2C(=O)NCCN2C)cn1 (configuration not stated)
Leishmania in macrophages: 33.83%
Pks13 thioesterase: -9.896%
ClpP1P2: -21.92%
T. brucei: -16.28%

SMILES: O=C(NC[C@]1(O)CN(Cc2ccccc2F)C[C@H]1O)c1ccccn1
Leishmania in macrophages: -3.738%
Pks13 thioesterase: -20.05%
ClpP1P2: 2.965%
T. brucei: 35.53%

SMILES: O=C(c1cc[nH]c(=O)c1)N1CCn2c(nnc2-c2ccccc2)C1
Leishmania in macrophages: 21.4%
Pks13 thioesterase: -46.26%
ClpP1P2: 4.258%
T. brucei: -19.19%

SMILES: CSC(C)(C)CNC(=O)NCC[S+]([O-])c1ccccc1 (configuration not stated)
Leishmania in macrophages: -13.65%
Pks13 thioesterase: -9.95%
ClpP1P2: -2.586%
T. brucei: 5.347%

SMILES: CC(C)c1nccn1C1CCCN(C(=O)CCc2cnn(C)c2)C1 (configuration not stated)
Leishmania in macrophages: 30.27%
Pks13 thioesterase: -11.01%
ClpP1P2: 6.526%
T. brucei: 16.17%

SMILES: Cc1nc(N2CCCCC2)ncc1C(=O)N1CC(C)(C)[C@@](C)(O)C1
Leishmania in macrophages: 28.68%
Pks13 thioesterase: -2.851%
ClpP1P2: -7.368%
T. brucei: -24.51%

SMILES: [H][C@@]12CS(=O)(=O)C[C@]1([H])N(C(=O)Nc1ccccc1Cl)CCN2C(C)=O
Leishmania in macrophages: 29.91%
T. brucei: -23.39%

SMILES: COCCN1C[C@H]2[C@@H](C1)N(C(=O)CCc1ccccc1)CC[C@H]2OC
Pks13 thioesterase: -5.758%
ClpP1P2: -2.794%

The last 2 entries again:

SMILES,Leishmania in macrophages,Pks13 thioesterase,ClpP1P2,T. brucei
[H][C@@]12CS(=O)(=O)C[C@]1([H])N(C(=O)Nc1ccccc1Cl)CCN2C(C)=O,29.91%,-,-,-23.39%
COCCN1C[C@H]2[C@@H](C1)N(C(=O)CCc1ccccc1)CC[C@H]2OC,-,-5.758%,-2.794%,-

Measurements from “University of Dundee, Small-Polar-MMV Screening Library” (2021), ChEMBL document CHEMBL3988442.